Data: patent US20120329854A1, “Methods and Compounds for the Diagnosis and Treatment for Cancer” (UNIVERSITÄTSKLINIKUM FREIBURG, priority 2009, published 2012)
No constants are given. Whether binding was seen depends on the method and setting. Some binding calls cover weakened binding; strength is not graded here.

Chains of the proteins cited; added tags and fusions are not shown. Lines headed by an entry give the natural chain unless they say otherwise; changes in a name come on top.
UniProt P10275: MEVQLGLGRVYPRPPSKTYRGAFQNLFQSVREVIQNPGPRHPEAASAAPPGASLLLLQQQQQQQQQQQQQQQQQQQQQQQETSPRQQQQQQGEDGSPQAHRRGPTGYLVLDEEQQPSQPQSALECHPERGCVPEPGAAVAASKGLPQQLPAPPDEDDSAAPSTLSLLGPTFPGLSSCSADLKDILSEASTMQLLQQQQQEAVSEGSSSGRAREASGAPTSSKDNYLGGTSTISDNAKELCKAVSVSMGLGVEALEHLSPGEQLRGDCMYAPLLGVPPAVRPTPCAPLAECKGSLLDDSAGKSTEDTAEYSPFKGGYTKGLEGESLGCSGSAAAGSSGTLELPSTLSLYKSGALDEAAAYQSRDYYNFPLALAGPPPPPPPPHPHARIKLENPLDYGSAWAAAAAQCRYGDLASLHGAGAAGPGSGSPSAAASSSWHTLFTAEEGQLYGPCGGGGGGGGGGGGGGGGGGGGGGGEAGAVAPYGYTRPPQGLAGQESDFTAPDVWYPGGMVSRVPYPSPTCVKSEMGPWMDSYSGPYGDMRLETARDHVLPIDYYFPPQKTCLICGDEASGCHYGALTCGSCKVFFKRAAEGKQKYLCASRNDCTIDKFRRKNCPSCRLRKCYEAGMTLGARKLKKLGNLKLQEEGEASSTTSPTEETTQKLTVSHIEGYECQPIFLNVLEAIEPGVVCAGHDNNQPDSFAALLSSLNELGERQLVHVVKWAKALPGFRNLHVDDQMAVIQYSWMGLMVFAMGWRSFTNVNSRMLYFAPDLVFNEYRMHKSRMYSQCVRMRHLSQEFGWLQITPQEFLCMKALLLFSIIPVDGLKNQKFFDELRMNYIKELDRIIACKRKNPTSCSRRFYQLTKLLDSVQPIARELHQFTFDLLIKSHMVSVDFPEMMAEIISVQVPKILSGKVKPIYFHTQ
UniProt P05771: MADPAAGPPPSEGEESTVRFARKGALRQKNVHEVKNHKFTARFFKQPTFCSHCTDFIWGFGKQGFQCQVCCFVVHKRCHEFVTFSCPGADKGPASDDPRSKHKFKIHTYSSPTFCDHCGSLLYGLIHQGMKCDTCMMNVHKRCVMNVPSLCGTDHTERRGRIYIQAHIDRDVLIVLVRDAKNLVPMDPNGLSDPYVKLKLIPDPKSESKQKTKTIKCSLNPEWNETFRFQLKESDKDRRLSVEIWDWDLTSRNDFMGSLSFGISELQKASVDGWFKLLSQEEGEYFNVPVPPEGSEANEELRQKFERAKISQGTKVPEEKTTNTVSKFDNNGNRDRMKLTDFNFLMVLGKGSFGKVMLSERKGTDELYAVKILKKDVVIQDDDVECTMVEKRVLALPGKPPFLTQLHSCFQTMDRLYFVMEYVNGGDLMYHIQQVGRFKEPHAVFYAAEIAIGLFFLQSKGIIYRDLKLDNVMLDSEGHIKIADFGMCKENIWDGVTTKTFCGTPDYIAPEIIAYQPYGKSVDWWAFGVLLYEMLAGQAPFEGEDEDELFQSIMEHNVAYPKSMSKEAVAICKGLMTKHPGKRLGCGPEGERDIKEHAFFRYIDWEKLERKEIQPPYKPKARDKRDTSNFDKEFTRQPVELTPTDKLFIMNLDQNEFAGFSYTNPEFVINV

Molecular target: androgen receptor (AR), endogenous in LNCaP cells (human) (UniProt P10275)
Test: Re-ChIP in R1881-treated LNCaP cells, first α-AR then α-PKCβI, KLK2 and FKBP5 promoters

For “protein kinase C beta 1 (PKCβI), endogenous in LNCaP cells (from UniProt P05771 2-671) (enzyme)”, the binding was “binds”.
